{"source": "the supplement of paper PMC12009310", "note": "Where a name gives a salt, the structure may show the parent alone. ± gives the standard deviation of the averaged measurements. This is one part of the list. Part of the spread comes from offsets between plates or batches.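 The cells are a mouse kidney inner medullary collecting duct line, silenced either for the ciliary gene Rpgrip1l or with a non-targeting control siRNA.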", "data": [{"test_system": "mIMCD3", "test": "robust z score of cell number vs plate controls; higher = more cells (less cytotoxic)", "details": "10 µM; 48 h; siRNA: siScr", "values": [{"smiles": "CN(C)c1nc(N)c(C(=O)Nc2cccnc2)nc1Cl", "note": "[ACDPP hydrochloride]", "robust z score of cell number": "-23 ± 22"}, {"smiles": "COc1cc(C[C@H]2C(=O)OC[C@@H]2Cc2ccc(OC)c(OC)c2)ccc1O", "note": "[Arctigenin]", "robust z score of cell number": "-21.7 ± 11"}, {"smiles": "COC(=O)C1=C(C)NC(C)=C(C(=O)OC)C1c1ccccc1[N+](=O)[O-]", "note": "[Nifedipine]", "robust z score of cell number": "-3.74 ± 2.7"}, {"smiles": "CCCCCCCCCCC(C)(C)C(=O)Nc1c(OC)cc(OC)cc1OC", "robust z score of cell number": "-52 ± 28"}, {"smiles": "CCOC(=O)[C@@H](C)Oc1cccc2c(=O)n(CC(=O)Nc3ccc4c(c3)OCCO4)ccc12", "robust z score of cell number": "-5.13 ± 0.29"}, {"smiles": "N#C/C(=C(/N)Sc1ccc(N)cc1)c1ccccc1C(F)(F)F", "robust z score of cell number": "-12 ± 14"}, {"smiles": "C=CCc1cccc(/C=N/NC(=O)CN2CCN(Cc3ccccc3)CC2)c1O", "robust z score of cell number": "-144 ± 110"}, {"smiles": "CCS(=O)(=O)N(C)[C@H]1c2cc(C#N)ccc2OC(C)(C)[C@@H]1O", "note": "(racemic) [Chromanol 293B]", "robust z score of cell number": "-1.51 ± 4.1"}, {"smiles": "COc1ccccc1N1CCN(CCCNc2cc(=O)n(C)c(=O)n2C)CC1", "note": "[Urapidil hydrochloride]", "robust z score of cell number": "-5.88 ± 2.6"}, {"smiles": "COc1ccc(-n2[nH]c3c4c(ncc3c2=O)CCCCC4)cc1", "robust z score of cell number": "-2.33 ± 1.4"}, {"smiles": "COc1ccccc1C1(O)CCN(CCCn2c3ccccc3c3ccccc32)CC1", "note": "[NNC 05-2090 hydrochloride]", "robust z score of cell number": "-14.4 ± 13"}, {"smiles": "CC(C)NCC(O)COc1ccccc1-n1cccc1", "note": "(centres undefined) [Isamoltane hemifumarate]", "robust z score of cell number": "-5.16 ± 1.1"}, {"smiles": "O=C(/C=C/c1ccc(O)c(O)c1)O[C@H](Cc1ccc(O)c(O)c1)C(=O)O", "note": "[Rosmarinic acid]", "robust z score of cell number": "-8.06 ± 12"}, {"smiles": "C[C@]12CC[C@@H]3c4ccc(O)cc4C[C@@H](CCCCCCCCC[S+]([O-])CCCC(F)(F)C(F)(F)F)[C@H]3[C@@H]1CC[C@@H]2O", "note": "(some centres undefined)", "robust z score of cell number": "-9.55 ± 0.72"}]}]}
